Measured values published in article PMC3491036 (PLoS ONE, 2012).

Test system: XA binding sites in the rat brain
Assay: [3H]-XA quantitative autoradiography on rat brain slices
Settings: for Density of sites: 3 µM [3H]-XA

O=C(O)c1cc(O)c2cccc(O)c2n1 [XA, Xanthurenic acid]
Density of sites (Accumbens nucleus lat. part): 247.3±12.8 fmoles/mg equivalent tissue
Density of sites (Caudate nucleus lat. part): 252.0±4.0 fmoles/mg equivalent tissue
Density of sites (Central amygdaloïd nucleus): 249.4±5.6 fmoles/mg equivalent tissue
Density of sites (Cerebellar lobules): 226.0±7.6 fmoles/mg equivalent tissue
Density of sites (Cingulate cortex ant. part): 219.7±6.4 fmoles/mg equivalent tissue
Density of sites (Dorsal hippocampus): 268.5±5.3 fmoles/mg equivalent tissue
Density of sites (Dorsal raphe nucleus (B7)): 94.1±7.7 fmoles/mg equivalent tissue
Density of sites (Dorsomedial hypothalamus): 220.7±9.5 fmoles/mg equivalent tissue
Density of sites (Globus pallidus): 183.5±8.7 fmoles/mg equivalent tissue
Density of sites (Interpeduncular nucleus): 106.8±2.2 fmoles/mg equivalent tissue
Density of sites (Lateral septal nucleus): 208.9±7.2 fmoles/mg equivalent tissue
Density of sites (Medial septal nucleus): 149.4±15.1 fmoles/mg equivalent tissue
Density of sites (Median raphe nucleus (B8)): 70.6±2.2 fmoles/mg equivalent tissue
Density of sites (Mediodorsal thalamic nucleus): 203.7±5.1 fmoles/mg equivalent tissue
Density of sites (Medulla oblongata): 162.2±6.6 fmoles/mg equivalent tissue
Density of sites (Occipital cortex): 160.0±37.8 fmoles/mg equivalent tissue
Density of sites (Olfactory tracts): 221.2±10.6 fmoles/mg equivalent tissue
Density of sites (Parietal cortex): 228.2±3.0 fmoles/mg equivalent tissue
Density of sites (Periacqueductal gray matter): 94.1±5.2 fmoles/mg equivalent tissue
Density of sites (Post. medial thalamic nucleus): 220.9±9.0 fmoles/mg equivalent tissue
Density of sites (Prefrontal cortex): 219.7±14.0 fmoles/mg equivalent tissue
Density of sites (Pyriform cortex): 233.5±11.9 fmoles/mg equivalent tissue
Density of sites (Substantia nigra (A9)): 104.6±1.8 fmoles/mg equivalent tissue
Density of sites (Temporal cortex): 82.4±6.8 fmoles/mg equivalent tissue
Density of sites (Ventral hippocampus): 110.0±2.2 fmoles/mg equivalent tissue
Density of sites (Ventral tegmental area (A10)): 89.8±5.6 fmoles/mg equivalent tissue
density of XA binding sites in the richest regions (dorsal hippocampus and caudate nucleus): about 250 fmoles of sites per mg tissue
